The supplement of paper PMC7580552
Structures can show the parent of a compound that is named as a salt. The list shows a part of the results. Baselines shift from plate to plate; read single values as rough.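 A K-12 lab model strain is cultured statically in 96-well plates; biofilm is measured as the absorbance of crystal violet stain retained in the wells. Drugs counted as candidate specific biofilm blockers if they strongly reduced staining while slowing planktonic growth by under 70%.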

Each compound was assayed on Escherichia coli W3110 (assay: biofilm formation (crystal violet staining) relative to untreated control; higher = more biofilm). Conditions: 10 µM; 20-24 h; 30 °C; TB.
`O=C(O)CCC(=O)Nc1ccc(S(=O)(=O)Nc2nccs2)cc1` [Succinylsulfathiazole] was tested, and the biofilm formation was 72%. For `COc1cnc(NS(=O)(=O)c2ccc(N)cc2)nc1` [Sulfameter], the biofilm formation was 30%. Work on `Cc1cccc(CN2CCN(C(c3ccccc3)c3ccc(Cl)cc3)CC2)c1` (centres undefined) [Meclozine dihydrochloride] yielded a biofilm formation of 69%. For `CNCCC(Oc1ccccc1OC)c1ccccc1` (centres undefined) [Nisoxetine hydrochloride], the biofilm formation was 73%. For `CCCCC(C)(O)C/C=C/[C@H]1[C@H](O)CC(=O)[C@@H]1CCCCCCC(=O)OC` (mixture of isomers) [Misoprostol], the biofilm formation was 44%. `COc1ccccc1O` [Guaiacol] gave a biofilm formation of 65%. With `CN(C)[C@@H]1C(O)=C(C(N)=O)C(=O)[C@@]2(O)C(O)=C3C(=O)c4c(O)ccc(Cl)c4[C@@](C)(O)[C@H]3C[C@@H]12` [Chlortetracycline hydrochloride] the biofilm formation was 20%. Compound `CC(=O)N(CC(C)C(=O)O)c1c(I)cc(I)c(N)c1I` (centres undefined) [Iocetamic acid] has a biofilm formation of 61%. With `COc1cc(C(=O)NC2CCCNC2)cc(OC)c1OC` (centres undefined) [Troxipide] the biofilm formation was 77%. `C[C@]12CC[C@@H]3c4ccc(O)cc4CC[C@H]3[C@@H]1CCC2=O` [Estrone] showed a biofilm formation of 46%. With `O=C1CCc2cc(OCCCCc3nnnn3C3CCCCC3)ccc2N1` [Cilostazol] the biofilm formation was 59%. Compound `CCS(=O)(=O)CCn1c([N+](=O)[O-])cnc1C` [Tinidazole] has a biofilm formation of 63%. `CCCCOc1cc(C(=O)NCCN(CC)CC)c2ccccc2n1` [Dibucaine] gave a biofilm formation of 77%. In the case of `CCC1=C(C)CN(C(=O)NCCc2ccc(S(=O)(=O)NC(=O)N[C@H]3CC[C@H](C)CC3)cc2)C1=O` [Glimepiride], the biofilm formation is reported as 78%. For `CC1(C)NC(=O)N(c2ccc([N+](=O)[O-])c(C(F)(F)F)c2)C1=O` [Nilutamide], the biofilm formation was 52%. Work on `CCCCC(CC)CNC(=N)NC(=N)NCCCCCCNC(=N)NC(=N)NCC(CC)CCCC` (centres undefined) [Alexidine dihydrochloride] yielded a biofilm formation of 9%. `COC(=O)[C@@H]1[C@H]2C[C@H]3c4[nH]c5ccccc5c4CCN3C[C@@H]2CC[C@@H]1O` [Yohimbine hydrochloride] gave a biofilm formation of 74%. `COc1ccc2cc([C@@H](C)C(=O)O)ccc2c1` [(R) -Naproxen sodium salt] gave a biofilm formation of 83%. `Nc1nc(=O)c2c([nH]1)NC[C@@H](CNc1ccc(C(=O)N[C@@H](CCC(=O)O)C(=O)O)cc1)N2C=O` [Folinic acid calcium salt] was tested, and the biofilm formation was 69%. Work on `CCn1cc(C(=O)O)c(=O)c2cnc(N3CCCC3)nc21` [Piromidic acid] yielded a biofilm formation of 66%. `O=S(=O)(O)CCS` [Mesna] showed a biofilm formation of 74%. `CC(C)(C)NC[C@H](O)c1ccc(O)c(CO)c1` [Levalbuterol hydrochloride] showed a biofilm formation of 77%. Compound `CCCCNC(=O)NS(=O)(=O)c1ccc(C)cc1` [Tolbutamide] has a biofilm formation of 82%. In the case of `O=C(O)c1cc(-c2ccc(F)cc2F)ccc1O` [Diflunisal], the biofilm formation is reported as 79%. Work on `CCOC(=O)OC(C)OC1=C(C(=O)Nc2ccccn2)N(C)S(=O)(=O)c2ccccc21` (centres undefined) [Ampiroxicam] yielded a biofilm formation of 58%. `CC(=O)[C@H]1CC[C@H]2[C@@H]3C[C@H](C)C4=CC(=O)CC[C@]4(C)[C@H]3[C@@H](O)C[C@]12C` [Medrysone] showed a biofilm formation of 74%. `CCN1CC(CCN2CCOCC2)C(c2ccccc2)(c2ccccc2)C1=O` (centres undefined) [Doxapram hydrochloride] gave a biofilm formation of 72%. For `OCc1cc(C(O)CNCCCCCCOCCCCc2ccccc2)ccc1O` (centres undefined) [Salmeterol], the biofilm formation was 49%. Compound `O=C(O)Cc1sc(-c2ccccc2)nc1-c1ccc(Cl)cc1` [Fentiazac] has a biofilm formation of 95%. `CC(=O)OCC(=O)[C@@]12N=C(C)O[C@@H]1C[C@H]1[C@@H]3CCC4=CC(=O)C=C[C@]4(C)[C@H]3[C@@H](O)C[C@@]12C` [Deflazacort] was tested, and the biofilm formation was 67%. In the case of `Cc1nc2n(c(=O)c1CCN1CCC(c3noc4cc(F)ccc34)CC1)CCCC2` [Risperidone], the biofilm formation is reported as 81%. For `CNCCC(Oc1ccc(C(F)(F)F)cc1)c1ccccc1` (centres undefined) [Fluoxetine hydrochloride], the biofilm formation was 87%. Work on `CC(=O)Nc1ccc(CC(=O)O)cc1` [Actarit] yielded a biofilm formation of 77%. For `C[C@@H](CN1CC(=O)NC(=O)C1)N1CC(=O)NC(=O)C1` [Dexrazoxane hydrochloride], the biofilm formation was 82%. In the case of `Clc1ccc(COC(Cn2ccnc2)c2ccc(Cl)cc2Cl)cc1` (centres undefined) [Econazole nitrate], the biofilm formation is reported as 46%. Work on `CO/N=C1\CN(c2nc3c(cc2F)c(=O)c(C(=O)O)cn3C2CC2)CC1CN` (centres undefined) [Gemifloxacin mesylate] yielded a biofilm formation of 12%. `Clc1ccccc1C(c1ccccc1)(c1ccccc1)n1ccnc1` [Clotrimazole] gave a biofilm formation of 56%. Work on `C=CC[N@@+]12CC[C@@]34c5ccccc5N5/C=C6/[C@H]7C[C@H]8[C@@]9(CC[N@@+]8(CC=C)C/C7=C/CO)c7ccccc7N(/C=C(/[C@@H](C[C@@H]31)/C(=C\CO)C2)[C@H]54)[C@@H]69` [Alcuronium chloride] yielded a biofilm formation of 94%. For `CCCC(C(=O)OCCN(CC)CC)(c1ccccc1)c1ccccc1` [Proadifen hydrochloride], the biofilm formation was 58%. `O=P(O)(O)C(O)(Cc1cccnc1)P(=O)(O)O` [Risedronic acid monohydrate] showed a biofilm formation of 58%. In the case of `CCN(CC)C(=O)N1CCN(C)CC1` [Diethylcarbamazine citrate], the biofilm formation is reported as 60%. In the case of `CCN(CCCc1ccccc1)CCCc1ccccc1` [Alverine citrate salt], the biofilm formation is reported as 72%. `Cc1c(O)cccc1C(=O)N[C@@H](CSc1ccccc1)[C@H](O)CN1C[C@H]2CCCC[C@H]2C[C@H]1C(=O)NC(C)(C)C` [Nelfinavir mesylate] was tested, and the biofilm formation was 71%. `CCSc1ccc2c(c1)N(CCCN1CCN(C)CC1)c1ccccc1S2` [Thiethylperazine dimalate] showed a biofilm formation of 60%. `CN(C)CCC(c1ccccc1)c1ccccn1` (centres undefined) [Pheniramine maleate] showed a biofilm formation of 85%. In the case of `CCCCOc1ccc(CC(=O)NO)cc1` [Bufexamac], the biofilm formation is reported as 67%. For `CC(=O)OC(C)C[N+](C)(C)C` (centres undefined) [Methacholine chloride], the biofilm formation was 53%. In the case of `NC[C@H]1CC[C@H](C(=O)O)CC1` [Tranexamic acid], the biofilm formation is reported as 81%. Compound `C=CCc1ccccc1OCC(O)CNC(C)C` (centres undefined) [Alprenolol hydrochloride] has a biofilm formation of 71%.
